The record followed here is publication PMC12504691.

No constants are given. Whether binding was seen depends on the method and setting. In cells and extracts the contact can be indirect. Some binding calls cover weakened binding; strength is not graded here.

The test concerns the target Estrogen receptor alpha (ESR1) (UniProt P03372). The experiment in a line: pull-down; called 'pull-down assay' in the legend; ESR1 overexpression model (MCF7), detected by blot; also after E2 treatment (Fig. 6G); bait not stated.

“SQSTM1 (p62) (from UniProt Q13501 1-440)”: the binding result is “binds”.
